No constants are given. Whether binding was seen depends on the method and setting. Binding seen in cells or lysates may run through a third protein. Some results given as binding are weak or reduced against the parent protein; the word gives no strength.
Target: Cbl E3 ubiquitin ligase (human (endogenous in A549)) (UniProt P22681)
Assay: co-IP; A549 and A549 + ITSN-1s (stable myc-ITSN-1s) cell lysates, 500 ug total protein, lysis buffer 50 mM Tris-HCl pH 8.0, 150 mM NaCl, 1 % NP-40; IP with 3 ug mSos1 or Cbl Ab and protein A/G, WB with Rac1 or Eps8 Ab; densitometry as percentage of control

The chains behind the UniProt entries cited, without tags or fusion partners.
UniProt Q12929: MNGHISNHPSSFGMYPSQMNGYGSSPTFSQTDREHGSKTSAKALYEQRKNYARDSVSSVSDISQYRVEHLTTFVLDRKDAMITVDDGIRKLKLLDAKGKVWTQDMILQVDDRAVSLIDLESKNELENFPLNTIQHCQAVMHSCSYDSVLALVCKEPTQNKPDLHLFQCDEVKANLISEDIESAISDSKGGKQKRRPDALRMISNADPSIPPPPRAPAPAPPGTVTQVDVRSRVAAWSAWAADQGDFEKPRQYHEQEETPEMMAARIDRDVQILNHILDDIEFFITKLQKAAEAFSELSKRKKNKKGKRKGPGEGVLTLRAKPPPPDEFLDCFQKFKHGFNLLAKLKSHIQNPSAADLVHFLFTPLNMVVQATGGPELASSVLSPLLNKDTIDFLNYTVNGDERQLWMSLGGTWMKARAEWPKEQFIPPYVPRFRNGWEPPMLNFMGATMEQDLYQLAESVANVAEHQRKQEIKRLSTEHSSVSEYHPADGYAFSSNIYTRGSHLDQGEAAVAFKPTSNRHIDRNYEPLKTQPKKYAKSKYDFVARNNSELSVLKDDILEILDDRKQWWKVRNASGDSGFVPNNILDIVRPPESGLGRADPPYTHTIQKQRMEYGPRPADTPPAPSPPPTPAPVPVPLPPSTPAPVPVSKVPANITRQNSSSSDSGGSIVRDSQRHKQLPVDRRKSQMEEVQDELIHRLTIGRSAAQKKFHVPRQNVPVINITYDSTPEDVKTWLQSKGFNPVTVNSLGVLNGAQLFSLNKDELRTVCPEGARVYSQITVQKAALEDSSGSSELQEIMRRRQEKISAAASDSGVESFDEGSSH

**Q.** How did the binding turn out when Eps8 (from UniProt Q12929 1-822) was run?
**A.** binds

— paper PMC5024437
